Measurements as given in article PMC6458997, “Deciphering the Molecular Mechanism Underpinning Phage Arbitrium Communication Systems” (Molecular Cell, 2019).
Results are given in words; binding and its absence hold for the method and conditions named.

Assays:
[1] = target: SPbeta AimR lacking the TPR C-terminal subdomain (stop codon at position 294) (Bacillus subtilis SPbeta phage) (UniProt O64094); assay: SEC; size-exclusion chromatography analysis of AimR^ΔC-ter in solution (Figure S2B); both purified
[2] = target: T1, SPbeta AimR (arbitrium peptide receptor / transcription factor AimR of Bacillus subtilis phage SPbeta), full length (Bacillus subtilis SPbeta phage) (UniProt O64094); assay: thermal shift assay (differential scanning fluorimetry); 20 μM protein, 5x Sypro Orange, 20 mM Tris pH 8, 250 mM NaCl, heated 20 to 85°C; apparent Kd from 10 peptide concentrations from 0 to 2 μM, fitted to a single binding site per monomer; both purified
T1 sequence: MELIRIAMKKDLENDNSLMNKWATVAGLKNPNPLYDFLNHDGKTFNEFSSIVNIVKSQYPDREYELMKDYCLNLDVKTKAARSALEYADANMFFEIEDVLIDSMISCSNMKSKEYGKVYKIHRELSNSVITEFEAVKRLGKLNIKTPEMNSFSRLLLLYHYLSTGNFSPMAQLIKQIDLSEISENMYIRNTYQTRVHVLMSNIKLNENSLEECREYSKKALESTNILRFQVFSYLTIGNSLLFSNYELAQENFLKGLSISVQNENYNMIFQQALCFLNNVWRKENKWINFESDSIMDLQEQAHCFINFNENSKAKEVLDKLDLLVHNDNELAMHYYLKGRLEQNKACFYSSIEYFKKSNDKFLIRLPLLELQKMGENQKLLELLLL

[3] = target: T2, SPbeta AimR D360A mutant (Bacillus subtilis SPbeta phage) (UniProt O64094); assay: as above
T2 sequence: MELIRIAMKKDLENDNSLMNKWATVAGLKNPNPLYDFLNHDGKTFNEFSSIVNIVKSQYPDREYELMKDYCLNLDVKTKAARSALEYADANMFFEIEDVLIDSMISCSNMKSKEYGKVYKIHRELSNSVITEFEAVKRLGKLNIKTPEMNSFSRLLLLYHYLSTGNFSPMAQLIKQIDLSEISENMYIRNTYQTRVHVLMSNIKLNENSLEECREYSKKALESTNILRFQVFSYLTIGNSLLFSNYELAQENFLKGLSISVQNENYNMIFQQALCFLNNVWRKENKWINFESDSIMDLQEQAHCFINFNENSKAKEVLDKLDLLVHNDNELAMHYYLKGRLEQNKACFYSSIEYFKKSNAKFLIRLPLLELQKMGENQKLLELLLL

[4] = target: T3, SPbeta AimR N202A mutant (Bacillus subtilis SPbeta phage) (UniProt O64094); assay: as above
T3 sequence: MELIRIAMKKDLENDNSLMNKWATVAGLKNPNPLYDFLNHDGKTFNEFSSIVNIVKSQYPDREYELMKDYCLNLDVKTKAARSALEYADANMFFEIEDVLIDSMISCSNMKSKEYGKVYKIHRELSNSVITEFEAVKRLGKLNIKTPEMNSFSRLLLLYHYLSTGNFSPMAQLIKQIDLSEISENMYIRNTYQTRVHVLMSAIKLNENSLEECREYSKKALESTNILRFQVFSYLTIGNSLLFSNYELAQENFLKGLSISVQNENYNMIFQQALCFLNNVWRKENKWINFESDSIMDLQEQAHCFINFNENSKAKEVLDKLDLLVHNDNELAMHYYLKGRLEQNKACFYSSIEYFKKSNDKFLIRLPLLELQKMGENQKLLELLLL

B1: SPbeta AimR lacking the TPR C-terminal subdomain (stop codon at position 294) (domain or fragment, UniProt O64094 1-293)
chain: MELIRIAMKKDLENDNSLMNKWATVAGLKNPNPLYDFLNHDGKTFNEFSSIVNIVKSQYPDREYELMKDYCLNLDVKTKAARSALEYADANMFFEIEDVLIDSMISCSNMKSKEYGKVYKIHRELSNSVITEFEAVKRLGKLNIKTPEMNSFSRLLLLYHYLSTGNFSPMAQLIKQIDLSEISENMYIRNTYQTRVHVLMSNIKLNENSLEECREYSKKALESTNILRFQVFSYLTIGNSLLFSNYELAQENFLKGLSISVQNENYNMIFQQALCFLNNVWRKENKWINFESD
In the case of B1, the binding [1] is reported as “no binding”.

B2: phi3T AimP arbitrium peptide SAIRGA (peptide)
peptide: SAIRGA
In the case of B2, the binding [2] is reported as “no binding”.

B3: SPbeta AimP arbitrium peptide GMPRGA (peptide)
peptide: GMPRGA
With B3 the binding [3] was “no binding” and the binding [4] was “no binding”.
